Source: publication PMC13390769

Chains of the proteins cited; added tags and fusions are not shown. Lines headed by an entry give the natural chain unless they say otherwise; changes in a name come on top.
UniProt Q96RK0: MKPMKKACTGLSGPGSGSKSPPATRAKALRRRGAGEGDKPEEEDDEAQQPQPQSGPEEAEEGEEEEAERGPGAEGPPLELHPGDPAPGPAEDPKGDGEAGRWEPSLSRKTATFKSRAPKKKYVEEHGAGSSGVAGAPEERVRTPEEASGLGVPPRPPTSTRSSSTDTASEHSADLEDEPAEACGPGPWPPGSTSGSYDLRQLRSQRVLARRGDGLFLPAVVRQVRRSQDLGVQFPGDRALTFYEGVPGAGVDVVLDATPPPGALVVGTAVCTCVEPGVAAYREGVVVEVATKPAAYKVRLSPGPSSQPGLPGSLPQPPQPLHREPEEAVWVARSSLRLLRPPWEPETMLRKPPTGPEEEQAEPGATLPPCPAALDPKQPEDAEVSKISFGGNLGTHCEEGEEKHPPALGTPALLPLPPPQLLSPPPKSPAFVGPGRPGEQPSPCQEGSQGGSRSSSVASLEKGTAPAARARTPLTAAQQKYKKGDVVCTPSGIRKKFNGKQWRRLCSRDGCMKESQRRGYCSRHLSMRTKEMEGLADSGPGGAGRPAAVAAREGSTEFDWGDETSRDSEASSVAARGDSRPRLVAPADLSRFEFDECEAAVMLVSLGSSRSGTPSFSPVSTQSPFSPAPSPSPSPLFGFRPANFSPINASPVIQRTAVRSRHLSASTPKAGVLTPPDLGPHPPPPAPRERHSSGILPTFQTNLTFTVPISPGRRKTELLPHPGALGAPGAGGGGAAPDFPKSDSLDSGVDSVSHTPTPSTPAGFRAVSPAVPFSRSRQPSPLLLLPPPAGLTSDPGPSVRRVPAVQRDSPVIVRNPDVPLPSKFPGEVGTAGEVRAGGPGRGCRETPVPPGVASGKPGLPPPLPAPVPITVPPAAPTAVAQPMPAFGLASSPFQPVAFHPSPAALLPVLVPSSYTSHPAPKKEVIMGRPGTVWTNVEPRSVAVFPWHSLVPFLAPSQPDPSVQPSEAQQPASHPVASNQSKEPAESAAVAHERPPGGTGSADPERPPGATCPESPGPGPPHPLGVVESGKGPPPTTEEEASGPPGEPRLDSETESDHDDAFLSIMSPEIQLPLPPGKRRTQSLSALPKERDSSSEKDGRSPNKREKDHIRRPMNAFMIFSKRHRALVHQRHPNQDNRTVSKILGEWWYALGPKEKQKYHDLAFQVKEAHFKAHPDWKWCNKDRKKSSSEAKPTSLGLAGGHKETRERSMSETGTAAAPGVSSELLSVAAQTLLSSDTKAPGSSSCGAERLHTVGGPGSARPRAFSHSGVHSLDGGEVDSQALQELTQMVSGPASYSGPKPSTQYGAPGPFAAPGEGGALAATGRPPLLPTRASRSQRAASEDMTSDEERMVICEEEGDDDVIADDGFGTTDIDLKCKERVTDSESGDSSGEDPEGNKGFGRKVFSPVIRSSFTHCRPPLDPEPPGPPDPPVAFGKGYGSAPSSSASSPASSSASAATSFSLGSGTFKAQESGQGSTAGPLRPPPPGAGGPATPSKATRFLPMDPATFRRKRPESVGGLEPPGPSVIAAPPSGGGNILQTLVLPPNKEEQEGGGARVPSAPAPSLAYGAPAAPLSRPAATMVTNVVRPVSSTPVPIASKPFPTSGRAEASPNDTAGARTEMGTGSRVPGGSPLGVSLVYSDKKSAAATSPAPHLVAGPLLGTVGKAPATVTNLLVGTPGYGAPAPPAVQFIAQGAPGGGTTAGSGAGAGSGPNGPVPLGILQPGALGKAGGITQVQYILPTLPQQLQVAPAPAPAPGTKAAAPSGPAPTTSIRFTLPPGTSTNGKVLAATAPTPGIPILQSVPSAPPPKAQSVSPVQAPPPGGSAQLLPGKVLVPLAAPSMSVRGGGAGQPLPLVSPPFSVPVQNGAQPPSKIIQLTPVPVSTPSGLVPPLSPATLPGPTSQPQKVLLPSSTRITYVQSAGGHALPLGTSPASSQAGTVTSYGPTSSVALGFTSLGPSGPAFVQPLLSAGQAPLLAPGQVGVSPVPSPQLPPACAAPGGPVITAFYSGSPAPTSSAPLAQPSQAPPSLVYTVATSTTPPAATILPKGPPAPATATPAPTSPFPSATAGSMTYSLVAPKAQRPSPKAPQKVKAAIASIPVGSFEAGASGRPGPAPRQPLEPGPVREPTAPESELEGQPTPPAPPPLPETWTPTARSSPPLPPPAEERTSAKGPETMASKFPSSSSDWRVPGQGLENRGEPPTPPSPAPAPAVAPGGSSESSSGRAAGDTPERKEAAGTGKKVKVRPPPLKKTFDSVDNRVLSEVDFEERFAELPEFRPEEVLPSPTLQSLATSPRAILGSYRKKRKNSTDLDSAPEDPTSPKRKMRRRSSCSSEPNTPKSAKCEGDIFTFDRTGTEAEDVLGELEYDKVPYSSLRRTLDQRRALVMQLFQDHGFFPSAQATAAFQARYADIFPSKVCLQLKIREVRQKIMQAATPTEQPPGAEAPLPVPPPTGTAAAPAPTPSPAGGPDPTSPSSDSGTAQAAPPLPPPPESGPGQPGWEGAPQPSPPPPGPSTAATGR

Columns and labels:
Assay in all cases: co-IP; HEK293T cotransfected with V5-tagged CIC constructs and FLAG-tagged ATXN1 or ATXN1L; lysis in 75 mM NaCl, 5 mM MgCl2, 50 mM Tris-HCl pH 8.0, 0.5% Triton X-100; IP with V5 antibody on Protein G Dynabeads, 2–4 h at 4°C; blot for FLAG
[1] = target: V5-tagged human CIC-S, wild type (human) (UniProt Q96RK0)
[2] = target: V5-tagged human CIC-L, wild type (human)
[3] = target: V5-tagged human CIC-L unique N-terminal region (CIC-Lunq) (human)
[4] = target: V5-tagged human CIC-S W37A (human)
[5] = target: V5-tagged human CIC-L W946A (human)

B1: FLAG-tagged human ATXN1L (protein, UniProt P0C7T5 1-689)
chain: MKPVHERSQECLPPKKRDLPVTSEDMGRTTSCSTNHTPSSDASEWSRGVVVAGQSQAGARVSLGGDGAEAITGLTVDQYGMLYKVAVPPATFSPTGLPSVVNMSPLPPTFNVASSLIQHPGIHYPPLHYAQLPSTSLQFIGSPYSLPYAVPPNFLPSPLLSPSANLATSHLPHFVPYASLLAEGATPPPQAPSPAHSFNKAPSATSPSGQLPHHSSTQPLDLAPGRMPIYYQMSRLPAGYTLHETPPAGASPVLTPQESQSALEAAAANGGQRPRERNLVRRESEALDSPNSKGEGQGLVPVVECVVDGQLFSGSQTPRVEVAAPAHRGTPDTDLEVQRVVGALASQDYRVVAAQRKEEPSPLNLSHHTPDHQGEGRGSARNPAELAEKSQARGFYPQSHQEPVKHRPLPKAMVVANGNLVPTGTDSGLLPVGSEILVASSLDVQARATFPDKEPTPPPITSSHLPSHFMKGAIIQLATGELKRVEDLQTQDFVRSAEVSGGLKIDSSTVVDIQESQWPGFVMLHFVVGEQQSKVSIEVPPEHPFFVYGQGWSSCSPGRTTQLFSLPCHRLQVGDVCISISLQSLNSNSVSQASCAPPSQLGPPRERPERTVLGSRELCDSEGKSQPAGEGSRVVEPSQPESGAQACWPAPSFQRYSMQGEEARAALLRPSFIPQEVKLSIEGRSNAGK
In the case of B1, the binding [1] is reported as “binds”, the binding [2] is reported as “binds” and the binding [3] is reported as “no binding”. The binding [4] was “binds” and the binding [5] was “no binding”.

These are yes or no findings as the source states them, for the method shown. In cells and extracts the contact can be indirect. For some assays here: Binding calls can cover weak binding; strength is not graded here. Sequences can lack the tags named with a protein.
